Earlier results on one compound are cited in publication PMC7811525, “Virtual screening of potentially endocrine-disrupting chemicals against nuclear receptors and its application to identify PPARγ-bound fatty acids” (Archives of Toxicology, 2020).

This series relates to PPARα. Also noted: method as in ToxCast database released in October 2015. The conditions noted are these: active/inactive call; ref ToxCast database released in October 2015; cited from earlier work.

Regarding `Clc1ccc(COC(Cn2ccnc2)c2ccc(Cl)cc2Cl)cc1` (stereo not shown) [econazole], the “ToxCast activity against PPARα” value was “active”.
